The target in this test is T1, Nuclear factor E2-related factor 2 (NRF2) (goat (endogenous in gEECs)).
T1 sequence: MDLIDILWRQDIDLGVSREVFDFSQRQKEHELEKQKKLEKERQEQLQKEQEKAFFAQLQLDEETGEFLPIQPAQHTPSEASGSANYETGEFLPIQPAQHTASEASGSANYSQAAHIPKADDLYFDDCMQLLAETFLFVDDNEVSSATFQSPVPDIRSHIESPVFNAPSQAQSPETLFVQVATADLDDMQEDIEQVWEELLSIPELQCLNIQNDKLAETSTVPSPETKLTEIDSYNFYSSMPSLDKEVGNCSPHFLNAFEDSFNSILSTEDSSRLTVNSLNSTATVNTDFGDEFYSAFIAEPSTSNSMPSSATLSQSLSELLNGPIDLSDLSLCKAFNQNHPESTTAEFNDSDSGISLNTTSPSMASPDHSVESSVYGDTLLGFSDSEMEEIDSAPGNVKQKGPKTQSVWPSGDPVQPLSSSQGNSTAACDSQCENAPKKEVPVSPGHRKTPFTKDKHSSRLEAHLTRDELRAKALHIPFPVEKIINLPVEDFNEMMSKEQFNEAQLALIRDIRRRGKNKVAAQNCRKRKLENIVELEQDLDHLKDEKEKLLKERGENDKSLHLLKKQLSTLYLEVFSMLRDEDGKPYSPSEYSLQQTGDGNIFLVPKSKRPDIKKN
In words: co-IP; NRF2 (D1Z9C) antibody added to 200 μg protein of gEEC lysate (8 μg/mL LPS for 12 hours) for 12 hours at 4°C, protein A/G beads; rabbit IgG as negative control; immunoblotting with NRF2, TLR4, IκBα and p65 antibodies.

Results are given in words; binding and its absence hold for the method and conditions named. In cells and extracts the contact can be indirect.

With “toll-like receptor 4 (TLR4) (goat (endogenous in gEECs))”, the binding entry was “no binding”.

Source of the values: publication PMC8577927.
